In the supplement of paper PMC12823440, “Inhibitors supercharge kinase turnover through native proteolytic circuits” (Nature, 2025):
Structures can show the parent of a compound that is named as a salt. Some of the results follow. The calls rarely recur for the same compound in another form.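 Kinases were expressed as nanoluciferase fusions in K562 cells and luminescence was read every 4 h between 2 and 18 h as percent of control, DMSO set to 100% and a positive control to 0%. A time point counts as decreased when the signal drops significantly (2 sigma). The hit call is the authors' own, does not follow from the count of time points alone, and its rule is not shown.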

The chains behind the UniProt entries cited, without tags or fusion partners. Where a name states a change or a piece, a line headed by the entry shows the natural chain unless it says otherwise.
UniProt Q9UM73: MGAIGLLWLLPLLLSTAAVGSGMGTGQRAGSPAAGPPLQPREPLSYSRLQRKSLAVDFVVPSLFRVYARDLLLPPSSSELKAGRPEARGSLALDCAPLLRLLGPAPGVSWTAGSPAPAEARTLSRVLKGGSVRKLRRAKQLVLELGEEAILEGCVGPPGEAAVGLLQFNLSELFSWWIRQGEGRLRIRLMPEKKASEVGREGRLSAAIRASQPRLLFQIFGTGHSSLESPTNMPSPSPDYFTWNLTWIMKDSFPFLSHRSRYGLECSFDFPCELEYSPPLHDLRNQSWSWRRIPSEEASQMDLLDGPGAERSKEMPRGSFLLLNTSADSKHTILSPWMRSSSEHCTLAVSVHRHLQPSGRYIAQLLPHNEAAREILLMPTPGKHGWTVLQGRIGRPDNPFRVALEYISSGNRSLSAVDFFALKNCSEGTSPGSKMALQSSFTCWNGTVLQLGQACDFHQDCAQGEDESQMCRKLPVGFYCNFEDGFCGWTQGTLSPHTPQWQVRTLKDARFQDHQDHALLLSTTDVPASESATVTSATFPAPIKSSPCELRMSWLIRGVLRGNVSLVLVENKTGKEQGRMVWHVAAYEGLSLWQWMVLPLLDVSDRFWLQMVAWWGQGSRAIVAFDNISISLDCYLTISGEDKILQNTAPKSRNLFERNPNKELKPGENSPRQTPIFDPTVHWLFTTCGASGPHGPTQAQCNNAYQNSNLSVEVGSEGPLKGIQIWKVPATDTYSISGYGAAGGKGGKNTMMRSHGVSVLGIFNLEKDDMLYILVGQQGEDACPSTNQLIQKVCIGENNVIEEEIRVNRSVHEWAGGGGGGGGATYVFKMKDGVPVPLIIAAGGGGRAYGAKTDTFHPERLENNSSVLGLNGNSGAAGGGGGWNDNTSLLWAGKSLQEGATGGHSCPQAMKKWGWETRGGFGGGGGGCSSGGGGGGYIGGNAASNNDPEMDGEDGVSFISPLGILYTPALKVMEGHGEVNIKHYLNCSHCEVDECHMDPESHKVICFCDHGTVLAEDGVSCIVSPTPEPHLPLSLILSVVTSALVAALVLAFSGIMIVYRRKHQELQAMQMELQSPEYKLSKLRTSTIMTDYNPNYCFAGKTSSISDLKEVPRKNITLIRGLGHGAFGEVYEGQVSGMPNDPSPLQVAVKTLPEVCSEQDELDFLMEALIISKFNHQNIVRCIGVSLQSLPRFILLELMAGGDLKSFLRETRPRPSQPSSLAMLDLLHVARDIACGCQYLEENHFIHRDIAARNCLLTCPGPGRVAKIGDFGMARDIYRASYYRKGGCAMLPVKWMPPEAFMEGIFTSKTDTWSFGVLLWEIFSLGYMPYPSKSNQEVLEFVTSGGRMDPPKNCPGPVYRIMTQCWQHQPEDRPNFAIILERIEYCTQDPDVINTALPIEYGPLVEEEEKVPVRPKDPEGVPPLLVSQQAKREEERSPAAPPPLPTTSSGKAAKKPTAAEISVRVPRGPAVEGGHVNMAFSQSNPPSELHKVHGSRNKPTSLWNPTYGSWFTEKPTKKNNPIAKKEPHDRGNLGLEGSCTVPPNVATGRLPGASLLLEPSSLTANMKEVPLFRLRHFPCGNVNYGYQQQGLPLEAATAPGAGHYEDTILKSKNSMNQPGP
UniProt P10398: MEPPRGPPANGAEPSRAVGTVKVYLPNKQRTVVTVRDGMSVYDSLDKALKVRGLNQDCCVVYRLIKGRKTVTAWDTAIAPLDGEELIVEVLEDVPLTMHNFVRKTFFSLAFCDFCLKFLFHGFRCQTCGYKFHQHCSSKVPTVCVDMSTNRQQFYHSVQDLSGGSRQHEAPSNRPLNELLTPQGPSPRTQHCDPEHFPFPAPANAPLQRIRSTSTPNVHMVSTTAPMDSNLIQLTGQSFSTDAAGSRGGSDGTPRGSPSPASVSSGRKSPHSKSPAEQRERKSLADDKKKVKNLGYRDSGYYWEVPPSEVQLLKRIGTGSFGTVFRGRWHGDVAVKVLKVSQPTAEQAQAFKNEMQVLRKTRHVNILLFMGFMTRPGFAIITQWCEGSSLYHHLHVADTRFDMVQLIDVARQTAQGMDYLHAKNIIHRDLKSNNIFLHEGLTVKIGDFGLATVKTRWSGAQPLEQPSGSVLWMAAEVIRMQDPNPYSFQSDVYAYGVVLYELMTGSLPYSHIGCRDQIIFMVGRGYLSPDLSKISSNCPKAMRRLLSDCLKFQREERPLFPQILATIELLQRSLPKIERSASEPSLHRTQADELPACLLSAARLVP
UniProt O14965: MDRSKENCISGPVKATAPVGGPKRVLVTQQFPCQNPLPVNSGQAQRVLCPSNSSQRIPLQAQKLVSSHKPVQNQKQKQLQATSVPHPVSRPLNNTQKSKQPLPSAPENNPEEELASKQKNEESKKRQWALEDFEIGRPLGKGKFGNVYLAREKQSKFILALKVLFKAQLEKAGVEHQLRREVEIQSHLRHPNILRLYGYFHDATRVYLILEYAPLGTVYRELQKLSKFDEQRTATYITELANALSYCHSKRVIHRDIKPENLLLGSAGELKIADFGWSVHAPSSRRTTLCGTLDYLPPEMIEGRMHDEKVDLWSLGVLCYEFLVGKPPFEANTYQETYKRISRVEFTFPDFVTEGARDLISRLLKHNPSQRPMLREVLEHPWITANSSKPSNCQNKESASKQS
UniProt Q96GD4, whole entry: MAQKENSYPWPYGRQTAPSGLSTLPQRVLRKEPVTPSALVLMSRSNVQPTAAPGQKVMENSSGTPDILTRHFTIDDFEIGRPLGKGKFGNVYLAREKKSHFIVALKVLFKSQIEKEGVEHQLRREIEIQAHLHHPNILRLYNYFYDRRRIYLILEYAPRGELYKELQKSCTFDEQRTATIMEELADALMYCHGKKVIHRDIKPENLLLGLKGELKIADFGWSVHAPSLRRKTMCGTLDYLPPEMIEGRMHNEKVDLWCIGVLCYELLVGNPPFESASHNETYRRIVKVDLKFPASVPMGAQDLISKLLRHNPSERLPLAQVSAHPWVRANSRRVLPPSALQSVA
UniProt Q9UQB9: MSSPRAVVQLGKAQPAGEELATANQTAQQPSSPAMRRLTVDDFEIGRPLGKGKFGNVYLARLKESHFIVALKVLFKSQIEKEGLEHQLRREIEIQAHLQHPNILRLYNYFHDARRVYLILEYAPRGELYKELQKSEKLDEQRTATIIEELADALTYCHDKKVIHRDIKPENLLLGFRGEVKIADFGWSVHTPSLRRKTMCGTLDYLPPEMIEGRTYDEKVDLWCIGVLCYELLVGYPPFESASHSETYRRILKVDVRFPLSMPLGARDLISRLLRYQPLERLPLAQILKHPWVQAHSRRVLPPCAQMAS
UniProt P51451: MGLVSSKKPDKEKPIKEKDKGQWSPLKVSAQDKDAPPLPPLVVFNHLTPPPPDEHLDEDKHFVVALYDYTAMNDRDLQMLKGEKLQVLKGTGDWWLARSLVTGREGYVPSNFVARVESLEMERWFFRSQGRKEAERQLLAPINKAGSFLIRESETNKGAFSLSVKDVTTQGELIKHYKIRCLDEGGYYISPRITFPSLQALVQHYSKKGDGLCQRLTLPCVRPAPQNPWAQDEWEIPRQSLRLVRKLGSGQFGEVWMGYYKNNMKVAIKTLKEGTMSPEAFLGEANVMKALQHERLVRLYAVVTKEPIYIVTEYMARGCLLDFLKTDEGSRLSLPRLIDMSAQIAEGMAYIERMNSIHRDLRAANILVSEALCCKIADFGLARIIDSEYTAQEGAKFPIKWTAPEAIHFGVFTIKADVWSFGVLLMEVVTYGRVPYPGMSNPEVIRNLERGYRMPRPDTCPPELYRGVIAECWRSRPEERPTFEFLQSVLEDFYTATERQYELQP
UniProt Q9UQM7, whole entry: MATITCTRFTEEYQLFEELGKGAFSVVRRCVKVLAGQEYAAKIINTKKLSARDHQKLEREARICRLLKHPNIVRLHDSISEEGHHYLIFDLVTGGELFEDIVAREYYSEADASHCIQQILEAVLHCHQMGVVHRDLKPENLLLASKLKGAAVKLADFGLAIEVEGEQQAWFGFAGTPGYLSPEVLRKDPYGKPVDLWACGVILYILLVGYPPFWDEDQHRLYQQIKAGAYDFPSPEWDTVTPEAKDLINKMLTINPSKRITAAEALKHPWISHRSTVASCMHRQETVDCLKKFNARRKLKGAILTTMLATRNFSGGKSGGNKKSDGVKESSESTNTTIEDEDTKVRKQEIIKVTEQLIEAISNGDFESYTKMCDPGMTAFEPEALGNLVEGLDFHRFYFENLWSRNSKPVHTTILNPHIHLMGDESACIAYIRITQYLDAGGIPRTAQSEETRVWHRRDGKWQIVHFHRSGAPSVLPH
UniProt Q13555: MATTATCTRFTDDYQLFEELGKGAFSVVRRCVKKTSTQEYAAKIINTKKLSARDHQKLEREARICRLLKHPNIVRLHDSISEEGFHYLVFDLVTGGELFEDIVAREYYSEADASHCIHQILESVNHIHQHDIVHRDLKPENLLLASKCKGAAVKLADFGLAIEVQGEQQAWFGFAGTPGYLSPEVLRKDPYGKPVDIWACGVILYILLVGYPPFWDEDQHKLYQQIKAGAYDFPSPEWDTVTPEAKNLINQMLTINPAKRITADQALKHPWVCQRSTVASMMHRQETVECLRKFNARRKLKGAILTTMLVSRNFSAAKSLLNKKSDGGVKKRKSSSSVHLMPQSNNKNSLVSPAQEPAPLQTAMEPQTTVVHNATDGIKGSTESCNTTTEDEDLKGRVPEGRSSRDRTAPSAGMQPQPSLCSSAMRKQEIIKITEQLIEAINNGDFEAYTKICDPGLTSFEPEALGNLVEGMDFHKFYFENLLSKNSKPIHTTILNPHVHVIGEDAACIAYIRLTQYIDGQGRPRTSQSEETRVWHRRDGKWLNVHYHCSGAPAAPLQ
UniProt Q00526: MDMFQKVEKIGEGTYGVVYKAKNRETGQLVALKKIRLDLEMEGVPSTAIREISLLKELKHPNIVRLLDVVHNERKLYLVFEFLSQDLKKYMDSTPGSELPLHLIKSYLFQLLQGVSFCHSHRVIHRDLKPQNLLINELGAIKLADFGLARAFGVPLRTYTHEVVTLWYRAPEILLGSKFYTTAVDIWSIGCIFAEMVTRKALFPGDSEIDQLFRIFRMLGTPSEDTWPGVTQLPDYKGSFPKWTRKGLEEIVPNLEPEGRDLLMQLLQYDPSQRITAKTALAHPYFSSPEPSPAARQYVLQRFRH
UniProt Q00535, whole entry, looked up: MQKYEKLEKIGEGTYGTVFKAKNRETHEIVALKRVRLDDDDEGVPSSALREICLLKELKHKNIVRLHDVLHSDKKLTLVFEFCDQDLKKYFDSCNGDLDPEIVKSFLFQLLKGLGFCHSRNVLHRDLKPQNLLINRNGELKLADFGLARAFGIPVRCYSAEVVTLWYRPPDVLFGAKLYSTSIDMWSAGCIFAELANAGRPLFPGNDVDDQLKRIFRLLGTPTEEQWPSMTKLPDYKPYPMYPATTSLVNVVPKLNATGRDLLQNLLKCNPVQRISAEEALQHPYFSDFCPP
UniProt Q00534, whole entry: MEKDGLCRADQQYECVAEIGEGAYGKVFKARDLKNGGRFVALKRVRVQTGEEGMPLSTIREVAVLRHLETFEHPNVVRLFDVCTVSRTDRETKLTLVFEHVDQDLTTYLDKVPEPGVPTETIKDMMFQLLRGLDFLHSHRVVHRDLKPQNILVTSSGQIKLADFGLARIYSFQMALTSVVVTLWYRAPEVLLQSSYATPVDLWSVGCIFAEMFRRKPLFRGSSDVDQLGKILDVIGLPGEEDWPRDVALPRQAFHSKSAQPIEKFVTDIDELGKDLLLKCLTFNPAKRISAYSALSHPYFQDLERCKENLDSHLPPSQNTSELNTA
UniProt O96017, whole entry: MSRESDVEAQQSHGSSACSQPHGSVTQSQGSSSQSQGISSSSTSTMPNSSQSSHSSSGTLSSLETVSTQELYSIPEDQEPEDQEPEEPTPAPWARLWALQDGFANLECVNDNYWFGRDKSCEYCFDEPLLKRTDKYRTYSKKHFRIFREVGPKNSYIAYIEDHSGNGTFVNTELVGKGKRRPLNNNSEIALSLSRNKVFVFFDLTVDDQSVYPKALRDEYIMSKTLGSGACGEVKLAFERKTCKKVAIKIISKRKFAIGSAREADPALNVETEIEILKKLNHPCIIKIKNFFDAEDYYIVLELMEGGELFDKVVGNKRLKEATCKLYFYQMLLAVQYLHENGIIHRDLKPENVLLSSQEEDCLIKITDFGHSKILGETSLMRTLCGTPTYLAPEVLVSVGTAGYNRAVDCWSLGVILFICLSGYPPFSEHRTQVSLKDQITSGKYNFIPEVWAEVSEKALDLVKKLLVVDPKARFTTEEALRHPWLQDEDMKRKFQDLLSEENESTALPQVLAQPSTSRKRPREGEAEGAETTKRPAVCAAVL

Legend:
Experiment in all cases: number of time points (of 5) at which kinase-Nluc abundance scored as decreased, DMSO-normalised (count); higher = more persistent destabilization
Conditions in all cases: K562; 2-18 h
ALK = ALK (UniProt Q9UM73)
ARAF = ARAF (UniProt P10398)
AURKA = AURKA (UniProt O14965)
AURKB = AURKB (UniProt Q96GD4)
AURKC = AURKC (UniProt Q9UQB9)
BLK = BLK (UniProt P51451)
BMX = BMX (UniProt P51813)
BRAF = BRAF (UniProt P15056)
BRAF_V600E = system: BRAF_V600E
BTK = BTK (UniProt Q06187)
CAMK2A = CAMK2A (UniProt Q9UQM7)
CAMK2G = CAMK2G (UniProt Q13555)
CDK10 = CDK10 (UniProt Q15131)
CDK2 = CDK2 (UniProt P24941)
CDK3 = CDK3 (UniProt Q00526)
CDK5 = CDK5 (UniProt Q00535)
CDK6 = CDK6 (UniProt Q00534)
CHEK2 = CHEK2 (UniProt O96017)
CSF1R = CSF1R (UniProt P07333)
CSK = CSK (UniProt P41240)

Measured: number of time points

NC(=O)c1c(NC(=O)C2CC2)sc2c1CCCC2 (10 µM)
0: all assays above

O=c1cc(-c2ccc(O[C@@H]3O[C@H](CO)[C@@H](O)[C@H](O)[C@H]3O)cc2)oc2cc(O)c([C@@H]3O[C@H](CO)[C@@H](O)[C@H](O)[C@H]3O[C@@H]3OC[C@H](O)[C@H](O)[C@H]3O)c(O)c12 [Vaccarin] (10 µM)
0: all assays above

Cc1nn(CC(F)(F)F)cc1Nc1ncc(Br)c(NCc2ccc(S(N)(=O)=O)cc2)n1 (10 µM)
0: all assays above

O=C(NCc1ccn[nH]1)c1cc([C@@H]2CCNC[C@H]2COc2ccc3c(c2)OCO3)ccc1F [GRK2-IN-1 (hydrochloride)] (10 µM)
0: all assays above

Reprinted at random: 2 records from the list
Cc1nn(CC(F)(F)F)cc1Nc1ncc(Br)c(NCc2ccc(S(N)(=O)=O)cc2)n1 (10 µM)
0: all assays above

O=C(NCc1ccn[nH]1)c1cc([C@@H]2CCNC[C@H]2COc2ccc3c(c2)OCO3)ccc1F [GRK2-IN-1 (hydrochloride)] (10 µM)
0: all assays above

Additional results follow:

Cn1c(N2CCO[C@@H](c3ccc(F)cc3)C2)nc(-c2ccncn2)cc1=O (10 µM)
2: CSF1R
0: all other assays above

N#Cc1cnc(Nc2cc(NC[C@H]3CNCCO3)c(C(F)(F)F)cn2)cn1 (10 µM)
1: BLK | BRAF | CAMK2G
3: ALK
2: CSF1R
0: all other assays above

Cc1cnc(Cl)nc1-c1ccc(N(Cc2ccc(CNC(=O)C(F)F)cc2)C(=O)c2ccc(O)cc2O)cc1 (10 µM)
0: all assays above

CN1CCN(c2ccc(-c3ccncc3-c3cc(F)c(O)c(F)c3)cc2)CC1 (10 µM)
0: all assays above

CCC[C@H](C)Oc1nc(N)c2[nH]c(=O)n(CCCCCN3CCCCC3)c2n1 (10 µM)
0: all assays above

CN(C[C@@H]1COCCO1)S(=O)(=O)Nc1ccc2ccc3ncc(-c4cnn(C)c4)cc3c(=O)c2c1 (2.5 µM)
0: all assays above

CNCCOc1ccccc1C1(Nc2nccn(-c3cc(C(=O)NC4CC4)cc(F)c3C)c2=O)CC1 (10 µM)
0: all assays above

CS[C@@]1(C(=O)Nc2ccc3[nH]nc(-c4ccc(OC(C)C)nc4)c3c2)CCN(CC(=O)N2CC=C(c3ccc(-c4ncn(C)n4)cc3)CC2)C1 (2.5 µM)
0: all assays above
